The other results are listed elsewhere or left out.

By UniProt entry, the sequences of proteins in these tests, tags left out. Where a name states a change or a piece, a line headed by the entry shows the natural chain unless it says otherwise.
UniProt O95819: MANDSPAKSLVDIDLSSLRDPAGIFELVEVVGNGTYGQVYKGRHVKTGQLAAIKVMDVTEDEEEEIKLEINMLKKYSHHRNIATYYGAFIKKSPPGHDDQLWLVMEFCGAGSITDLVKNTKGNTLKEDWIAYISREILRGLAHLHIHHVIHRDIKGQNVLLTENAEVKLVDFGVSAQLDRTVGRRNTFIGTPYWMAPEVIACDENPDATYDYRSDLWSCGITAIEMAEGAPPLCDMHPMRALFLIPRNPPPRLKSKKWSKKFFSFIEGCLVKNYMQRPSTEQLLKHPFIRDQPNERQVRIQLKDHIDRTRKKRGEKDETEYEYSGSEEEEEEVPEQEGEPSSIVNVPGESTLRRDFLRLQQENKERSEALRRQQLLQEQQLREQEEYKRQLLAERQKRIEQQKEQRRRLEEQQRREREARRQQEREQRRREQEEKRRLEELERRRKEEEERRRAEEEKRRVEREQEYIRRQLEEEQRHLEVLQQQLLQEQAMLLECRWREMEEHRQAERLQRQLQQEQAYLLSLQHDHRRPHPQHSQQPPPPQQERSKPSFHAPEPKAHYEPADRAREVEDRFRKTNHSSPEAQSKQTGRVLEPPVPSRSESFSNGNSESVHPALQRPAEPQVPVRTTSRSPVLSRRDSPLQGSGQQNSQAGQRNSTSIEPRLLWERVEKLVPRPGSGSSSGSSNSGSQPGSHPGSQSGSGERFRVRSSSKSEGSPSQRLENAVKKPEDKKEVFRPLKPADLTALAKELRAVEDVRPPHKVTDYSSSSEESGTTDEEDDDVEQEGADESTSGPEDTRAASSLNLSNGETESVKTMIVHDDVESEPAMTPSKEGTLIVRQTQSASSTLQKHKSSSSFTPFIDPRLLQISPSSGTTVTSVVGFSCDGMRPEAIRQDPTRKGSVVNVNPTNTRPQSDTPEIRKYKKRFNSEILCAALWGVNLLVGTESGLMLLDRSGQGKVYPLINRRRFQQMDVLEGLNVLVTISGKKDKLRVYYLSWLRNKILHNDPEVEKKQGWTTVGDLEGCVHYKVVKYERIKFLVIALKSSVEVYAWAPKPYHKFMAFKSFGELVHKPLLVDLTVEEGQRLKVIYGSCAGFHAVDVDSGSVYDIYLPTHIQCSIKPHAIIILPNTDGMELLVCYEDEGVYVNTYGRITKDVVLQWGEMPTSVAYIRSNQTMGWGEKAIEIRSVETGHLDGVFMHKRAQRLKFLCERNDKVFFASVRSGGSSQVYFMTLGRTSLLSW
UniProt P43357, whole entry, looked up: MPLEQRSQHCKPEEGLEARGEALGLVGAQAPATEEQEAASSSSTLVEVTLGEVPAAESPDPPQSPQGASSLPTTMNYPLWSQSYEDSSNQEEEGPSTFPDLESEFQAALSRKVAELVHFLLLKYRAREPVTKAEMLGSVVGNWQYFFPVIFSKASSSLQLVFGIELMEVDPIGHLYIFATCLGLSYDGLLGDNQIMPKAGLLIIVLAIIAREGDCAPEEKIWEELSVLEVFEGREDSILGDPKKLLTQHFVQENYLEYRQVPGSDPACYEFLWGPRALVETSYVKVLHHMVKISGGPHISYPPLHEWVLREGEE
UniProt P56192: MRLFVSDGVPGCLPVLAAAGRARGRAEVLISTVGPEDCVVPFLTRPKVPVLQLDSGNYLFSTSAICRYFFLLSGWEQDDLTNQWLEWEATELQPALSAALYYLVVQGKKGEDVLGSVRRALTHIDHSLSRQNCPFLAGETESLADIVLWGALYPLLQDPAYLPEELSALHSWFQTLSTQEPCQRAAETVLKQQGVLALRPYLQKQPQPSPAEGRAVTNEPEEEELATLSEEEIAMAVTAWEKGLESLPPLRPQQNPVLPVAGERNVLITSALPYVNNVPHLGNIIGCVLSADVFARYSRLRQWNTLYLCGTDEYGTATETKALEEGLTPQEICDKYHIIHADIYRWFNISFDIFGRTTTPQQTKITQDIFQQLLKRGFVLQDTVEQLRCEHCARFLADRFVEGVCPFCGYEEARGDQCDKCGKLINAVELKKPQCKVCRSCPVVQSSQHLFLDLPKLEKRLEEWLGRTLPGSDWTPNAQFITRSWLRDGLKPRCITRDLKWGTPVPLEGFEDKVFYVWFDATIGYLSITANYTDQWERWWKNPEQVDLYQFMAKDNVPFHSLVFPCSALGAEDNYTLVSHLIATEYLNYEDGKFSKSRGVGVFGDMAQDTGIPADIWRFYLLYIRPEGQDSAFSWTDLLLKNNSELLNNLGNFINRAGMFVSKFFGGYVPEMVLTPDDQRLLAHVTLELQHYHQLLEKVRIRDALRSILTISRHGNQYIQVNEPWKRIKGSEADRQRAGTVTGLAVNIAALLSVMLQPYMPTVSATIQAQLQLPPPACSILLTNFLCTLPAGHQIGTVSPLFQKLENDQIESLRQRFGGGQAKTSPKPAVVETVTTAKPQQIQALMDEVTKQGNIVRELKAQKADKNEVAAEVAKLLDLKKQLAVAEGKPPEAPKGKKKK
UniProt Q86UD3: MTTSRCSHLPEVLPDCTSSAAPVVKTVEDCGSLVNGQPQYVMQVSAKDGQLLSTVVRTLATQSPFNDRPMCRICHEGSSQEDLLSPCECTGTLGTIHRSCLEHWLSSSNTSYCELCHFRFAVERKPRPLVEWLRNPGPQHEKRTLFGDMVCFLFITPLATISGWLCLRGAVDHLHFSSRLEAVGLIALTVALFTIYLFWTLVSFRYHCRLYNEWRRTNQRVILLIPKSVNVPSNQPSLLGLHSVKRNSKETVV
UniProt Q96GW9: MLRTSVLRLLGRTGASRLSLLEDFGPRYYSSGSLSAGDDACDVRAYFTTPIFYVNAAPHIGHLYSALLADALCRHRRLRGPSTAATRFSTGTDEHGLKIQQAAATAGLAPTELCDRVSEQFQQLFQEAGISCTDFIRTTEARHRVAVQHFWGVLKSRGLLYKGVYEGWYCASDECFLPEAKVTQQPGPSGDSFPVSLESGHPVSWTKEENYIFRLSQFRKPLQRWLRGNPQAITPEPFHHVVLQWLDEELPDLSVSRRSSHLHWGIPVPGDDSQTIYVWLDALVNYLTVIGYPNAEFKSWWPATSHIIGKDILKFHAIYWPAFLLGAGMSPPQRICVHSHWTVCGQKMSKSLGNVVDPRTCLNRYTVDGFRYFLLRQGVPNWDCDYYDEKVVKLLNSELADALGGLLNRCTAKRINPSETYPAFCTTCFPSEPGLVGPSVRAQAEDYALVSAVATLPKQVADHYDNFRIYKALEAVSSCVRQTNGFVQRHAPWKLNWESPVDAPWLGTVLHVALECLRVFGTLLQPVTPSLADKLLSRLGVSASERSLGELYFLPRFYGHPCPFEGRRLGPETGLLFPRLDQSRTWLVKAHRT
UniProt Q16553: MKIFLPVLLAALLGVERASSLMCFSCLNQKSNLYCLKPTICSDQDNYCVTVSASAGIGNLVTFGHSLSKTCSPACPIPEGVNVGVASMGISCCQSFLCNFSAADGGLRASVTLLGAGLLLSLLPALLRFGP
UniProt Q5TCQ9: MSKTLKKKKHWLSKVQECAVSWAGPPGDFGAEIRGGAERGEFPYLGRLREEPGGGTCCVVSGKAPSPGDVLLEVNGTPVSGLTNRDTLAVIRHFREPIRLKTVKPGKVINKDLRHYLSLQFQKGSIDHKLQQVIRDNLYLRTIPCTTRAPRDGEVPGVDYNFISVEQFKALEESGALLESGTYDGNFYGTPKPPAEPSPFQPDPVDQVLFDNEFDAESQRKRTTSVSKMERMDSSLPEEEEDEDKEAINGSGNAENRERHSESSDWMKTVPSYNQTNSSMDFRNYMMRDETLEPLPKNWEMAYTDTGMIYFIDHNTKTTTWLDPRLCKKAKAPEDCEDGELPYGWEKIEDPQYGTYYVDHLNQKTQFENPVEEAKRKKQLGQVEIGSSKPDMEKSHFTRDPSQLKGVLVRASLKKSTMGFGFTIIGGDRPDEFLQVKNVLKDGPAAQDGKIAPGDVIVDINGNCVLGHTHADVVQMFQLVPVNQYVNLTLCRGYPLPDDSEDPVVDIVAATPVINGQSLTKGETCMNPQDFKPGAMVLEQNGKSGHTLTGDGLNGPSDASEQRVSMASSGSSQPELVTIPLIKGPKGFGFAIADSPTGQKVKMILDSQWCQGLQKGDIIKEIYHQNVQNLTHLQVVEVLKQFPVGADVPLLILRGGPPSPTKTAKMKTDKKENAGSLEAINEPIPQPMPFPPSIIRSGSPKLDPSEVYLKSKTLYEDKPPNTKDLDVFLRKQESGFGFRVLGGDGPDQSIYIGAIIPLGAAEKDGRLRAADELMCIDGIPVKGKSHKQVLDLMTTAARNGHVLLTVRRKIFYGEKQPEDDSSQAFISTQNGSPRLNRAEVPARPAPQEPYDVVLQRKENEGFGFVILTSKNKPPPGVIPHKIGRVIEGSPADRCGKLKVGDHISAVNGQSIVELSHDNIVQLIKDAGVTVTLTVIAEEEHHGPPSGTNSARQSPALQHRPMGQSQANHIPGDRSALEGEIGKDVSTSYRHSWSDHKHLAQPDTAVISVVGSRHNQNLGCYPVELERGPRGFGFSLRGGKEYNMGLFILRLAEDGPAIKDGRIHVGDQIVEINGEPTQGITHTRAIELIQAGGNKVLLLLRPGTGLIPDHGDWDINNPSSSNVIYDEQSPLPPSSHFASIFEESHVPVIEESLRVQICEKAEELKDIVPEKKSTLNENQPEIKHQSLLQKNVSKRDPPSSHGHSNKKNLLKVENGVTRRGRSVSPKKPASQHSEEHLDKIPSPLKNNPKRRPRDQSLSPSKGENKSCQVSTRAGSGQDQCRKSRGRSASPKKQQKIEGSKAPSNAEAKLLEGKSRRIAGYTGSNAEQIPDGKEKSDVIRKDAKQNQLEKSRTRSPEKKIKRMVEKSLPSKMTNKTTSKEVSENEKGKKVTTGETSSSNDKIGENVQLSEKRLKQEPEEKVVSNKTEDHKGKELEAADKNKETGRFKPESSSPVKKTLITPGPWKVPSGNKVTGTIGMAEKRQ
UniProt Q9BPZ7, whole entry, looked up: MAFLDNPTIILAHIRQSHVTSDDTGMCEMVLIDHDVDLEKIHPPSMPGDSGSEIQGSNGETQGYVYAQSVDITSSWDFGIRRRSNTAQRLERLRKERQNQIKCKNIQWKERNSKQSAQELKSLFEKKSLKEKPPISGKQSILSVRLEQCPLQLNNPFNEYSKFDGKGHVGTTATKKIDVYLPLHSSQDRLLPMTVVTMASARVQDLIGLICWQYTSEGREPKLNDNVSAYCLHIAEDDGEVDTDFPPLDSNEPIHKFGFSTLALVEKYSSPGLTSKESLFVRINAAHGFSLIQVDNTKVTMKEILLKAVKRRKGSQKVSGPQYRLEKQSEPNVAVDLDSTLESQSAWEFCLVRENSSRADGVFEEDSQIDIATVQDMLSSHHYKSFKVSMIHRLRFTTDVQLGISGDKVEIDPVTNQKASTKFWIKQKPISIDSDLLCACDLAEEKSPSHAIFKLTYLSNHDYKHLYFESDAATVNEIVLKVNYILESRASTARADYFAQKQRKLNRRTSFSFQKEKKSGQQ
UniProt Q13164: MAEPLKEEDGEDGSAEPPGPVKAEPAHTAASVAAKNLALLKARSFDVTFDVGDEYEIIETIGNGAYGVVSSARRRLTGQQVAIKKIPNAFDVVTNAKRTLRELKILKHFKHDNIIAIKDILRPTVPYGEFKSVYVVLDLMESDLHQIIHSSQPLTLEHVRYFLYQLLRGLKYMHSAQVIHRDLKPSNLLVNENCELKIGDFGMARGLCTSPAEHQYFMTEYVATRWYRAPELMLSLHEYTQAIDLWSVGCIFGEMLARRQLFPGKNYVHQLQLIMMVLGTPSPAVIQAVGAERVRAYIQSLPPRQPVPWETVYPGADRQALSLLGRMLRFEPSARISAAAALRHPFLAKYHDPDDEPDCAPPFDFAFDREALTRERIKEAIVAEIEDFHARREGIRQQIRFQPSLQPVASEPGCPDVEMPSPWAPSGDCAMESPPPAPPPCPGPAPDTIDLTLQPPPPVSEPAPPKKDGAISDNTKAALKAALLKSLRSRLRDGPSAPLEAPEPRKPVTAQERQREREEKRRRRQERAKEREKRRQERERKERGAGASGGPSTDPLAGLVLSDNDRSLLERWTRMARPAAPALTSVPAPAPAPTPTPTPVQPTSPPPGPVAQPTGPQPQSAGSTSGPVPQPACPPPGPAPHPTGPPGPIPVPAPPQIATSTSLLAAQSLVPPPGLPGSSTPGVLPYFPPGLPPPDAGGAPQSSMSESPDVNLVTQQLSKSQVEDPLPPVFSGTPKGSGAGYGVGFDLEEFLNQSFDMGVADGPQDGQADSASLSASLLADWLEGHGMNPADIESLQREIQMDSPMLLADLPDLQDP
UniProt Q9HAY2: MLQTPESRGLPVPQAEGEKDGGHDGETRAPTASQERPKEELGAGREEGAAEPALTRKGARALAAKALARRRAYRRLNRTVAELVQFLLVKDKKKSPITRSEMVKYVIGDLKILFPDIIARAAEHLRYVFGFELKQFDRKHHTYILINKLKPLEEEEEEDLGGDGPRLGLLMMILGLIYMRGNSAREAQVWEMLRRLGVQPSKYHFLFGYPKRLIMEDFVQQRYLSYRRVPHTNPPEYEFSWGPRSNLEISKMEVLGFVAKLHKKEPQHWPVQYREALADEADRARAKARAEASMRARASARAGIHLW

Compound in the first experiment: NCC(=O)Nc1ccc(-n2nc(C(F)(F)F)cc2-c2ccc3c(ccc4ccccc43)c2)cc1
Briefly: log2 fold change, soluble protein after heating vs DMSO (PISA); higher = thermal stabilisation; K562 lysate, 10 uM; active = over 0.2 and 3.5 SD of the protein, either way, in both replicates (recomputed). Summed up:
(§1)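 Log-two fold change in thermal stability relative to solvent controls is reported from duplicates. For each sample, crude K562 extract from dounce-homogenised pellets in PBS pH 7.4 with 1 mM MgCl2, at 1 mg/mL protein, was treated with 10 μM compound for 30 min. Aliquots heated for 3 min across 48°C-58°C were pooled, brought to 0.5% NP-40 at 4°C and cleared at 21,000xg for 90 min. The supernatant was quantified by TMTpro 16plex LC-MS/MS with channel sums equalised.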
For the target MAN2B1 (UniProt O00754), the log2 fold change was inactive: 0.008.

On to MAP4K4 isoform 3 (UniProt O95819), for which the log2 fold change is inactive: 0.041.

For the target MAP2K7 isoform 4 (UniProt O14733), the log2 fold change was inactive: 0.009.

Consider MAGEA3 (UniProt P43357), for which the log2 fold change is inactive: 0.019.

For LYPLA1, A0A087X1K9, the log2 fold change is inactive: 0.026.

As for MARS (UniProt P56192), the log2 fold change was inactive: 0.028.

In the case of MAP3K5 (UniProt Q99683), the log2 fold change is inactive: -0.216.

With MAGI1 isoform 6 (UniProt Q96QZ7), the log2 fold change is inactive: 0.068.

As to MAP3K6 (UniProt O95382), the log2 fold change was inactive: -0.088.

On to MARCHF3 (UniProt Q86UD3), for which the log2 fold change is inactive: 0.007.

Take MAGEA12 (UniProt P43365): the log2 fold change is inactive: 0.006.

In the case of MAD2L2 (UniProt Q9UI95), the log2 fold change was inactive: 0.075.

Regarding MARS2 (UniProt Q96GW9), the log2 fold change is inactive: 0.002.

As for MAP3K1 (UniProt Q13233), the log2 fold change is inactive: -0.228.

With MAP3K20 isoform 2 (UniProt Q9NYL2), the log2 fold change was inactive: -0.057.

As for LY6E (UniProt Q16553), the log2 fold change is inactive: 0.165.

Take MAP2K3 isoform 3 (UniProt P46734): the log2 fold change is inactive: -0.033.

Regarding MAGI3 isoform 1 (UniProt Q5TCQ9), the log2 fold change was inactive: 0.076.

On to LZIC isoform 2 (UniProt Q8WZA0), for which the log2 fold change was inactive: -0.012.

With MAD1L1 (UniProt Q9Y6D9), the log2 fold change was inactive: 0.041.

Compound in a further experiment: O=C(CCCCCCC(=O)Nc1ccccc1)NO [vorinostat]
The description is as above. In short, it runs like this: as §1
As to MAN2B1 (UniProt O00754), the log2 fold change is inactive: 0.047.

MAP4K4 isoform 3 (UniProt O95819): the log2 fold change was inactive: -0.145.

With MANBAL (UniProt Q9NQG1), the log2 fold change was inactive: 0.113.

On to MAST3 (UniProt O60307), for which the log2 fold change was inactive: 0.168.

Consider MAP2K7 isoform 4 (UniProt O14733), for which the log2 fold change was active: -1.09.

For the target LTBR (UniProt P36941), the log2 fold change is inactive: 0.123.

For MAPKAP1 (UniProt Q9BPZ7), the log2 fold change was inactive: -0.111.

For MARS (UniProt P56192), the log2 fold change was inactive: -0.211.

Consider MAPK11 (UniProt Q15759), for which the log2 fold change was inactive: -0.463.

Turning to MAGI1 isoform 6 (UniProt Q96QZ7), the log2 fold change is inactive: 0.001.

Consider MAPK15 (UniProt Q8TD08), for which the log2 fold change was inactive: 0.024.

Take LTBP1 isoform 4 (UniProt Q14766): the log2 fold change is inactive: -0.038.

Consider LTBP4 (UniProt Q8N2S1), for which the log2 fold change was inactive: 0.039.

On to LYL1 (UniProt P12980), for which the log2 fold change is inactive: -0.466.

For MAP4K4 isoform 6 (UniProt O95819), the log2 fold change was inactive: -0.134.

Turning to MAD2L2 (UniProt Q9UI95), the log2 fold change was active: -0.348.

For MAFG (UniProt O15525), the log2 fold change is inactive: 0.069.

For the target MARS2 (UniProt Q96GW9), the log2 fold change is inactive: -0.146.

With MAPK7 (UniProt Q13164), the log2 fold change was inactive: -0.102.

For the target MAP3K20 isoform 2 (UniProt Q9NYL2), the log2 fold change is inactive: 0.124.

On to LYN isoform 2 (UniProt P07948), for which the log2 fold change was inactive: -0.118.

Turning to MAGEF1 (UniProt Q9HAY2), the log2 fold change is inactive: 0.023.

In the case of MAP2K3 isoform 3 (UniProt P46734), the log2 fold change was active: -0.577.

Regarding MAGI3 isoform 1 (UniProt Q5TCQ9), the log2 fold change was inactive: -0.116.

For MAN2B2 (UniProt Q9Y2E5), the log2 fold change is inactive: 0.117.

As for LZIC isoform 2 (UniProt Q8WZA0), the log2 fold change was inactive: 0.132.

On to MAD1L1 (UniProt Q9Y6D9), for which the log2 fold change was inactive: -0.022.

These data come from the supplement of paper PMC10849652.
